Experimental data taken from publication PMC3887180.
No constants are given. Whether binding was seen depends on the method and setting. In cells and extracts the contact can be indirect. Some results given as binding are weak or reduced against the parent protein; the word gives no strength. For some assays here: Sequences can lack the tags named with a protein.

Amino acid sequences for entries named in this document (tags omitted).
UniProt P32121: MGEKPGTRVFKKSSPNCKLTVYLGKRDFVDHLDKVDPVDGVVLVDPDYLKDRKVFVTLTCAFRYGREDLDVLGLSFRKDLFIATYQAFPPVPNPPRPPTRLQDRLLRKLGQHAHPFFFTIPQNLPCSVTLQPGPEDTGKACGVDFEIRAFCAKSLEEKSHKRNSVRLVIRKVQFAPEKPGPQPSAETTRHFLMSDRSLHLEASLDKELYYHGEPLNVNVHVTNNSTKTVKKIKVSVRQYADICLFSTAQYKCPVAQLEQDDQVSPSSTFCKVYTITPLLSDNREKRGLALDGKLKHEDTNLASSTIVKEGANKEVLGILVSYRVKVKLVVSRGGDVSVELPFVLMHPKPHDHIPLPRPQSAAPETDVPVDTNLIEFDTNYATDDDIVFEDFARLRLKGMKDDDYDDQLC

B1: endogenous Amer1 (NB4 cells) (protein, UniProt Q5JTC6 1-1135)
chain: METQKDEAAQAKGAAASGSTREQTAEKGAKNKAAEATEGPTSEPSSSGPGRLKKTAMKLFGGKKGICTLPSFFGGGRSKGSGKGSSKKGLSKSKTHDGLSEAAHGPEDVVSEGTGFSLPLPELPCQFPSSQSAHGALETGSRCKTSVAGATEKAVAEKFPSMPKPKKGLKGFFSSIRRHRKSKVTGAEQSEPGAKGPERVRARPHEHVSSAPQVPCFEETFQAPRKENANPQDAPGPKVSPTPEPSPPATEKMACKDPEKPMEACASAHVQPKPAPEASSLEEPHSPETGEKVVAGEVNPPNGPVGDPLSLLFGDVTSLKSFDSLTGCGDIIAEQDMDSMTDSMASGGQRANRDGTKRSSCLVTYQGGGEEMALPDDDDEEEEEEEEVELEEEEEEVKEEEEDDDLEYLWETAQMYPRPNMNLGYHPTTSPGHHGYMLLDPVRSYPGLAPGELLTPQSDQQESAPNSDEGYYDSTTPGFEDDSGEALGLVRRDCLPRDSYSGDALYEFYEPDDSLENSPPGDDCLYDLHGRSSEMFDPFLNFEPFLSSRPPGAMETEEERLVTIQKQLLYWELRREQLEAQEARAREAHAREAHAREAYTREAYGREAYAREAHTWEAHGREARTREAQAREVRCRETQVRETQARQEKPVLEYQMRPLGPSVMGLAAGVSGTSQISHRGITSAFPTTASSEPDWRDFRPLEKRYEGTCSKKDQSTCLMQLFQSDAMFEPDMQEANFGGSPRRAYPTYSPPEDPEEEEVEKEGNATVSFSQALVEFTSNGNLFSSMSCSSDSDSSFTQNLPELPPMVTFDIADVERDGEGKCEENPEFHNDEDLAASLEAFELGYYHKHAFNNYHSRFYQGLPWGVSSLPRYLGLPGLHPRPPPAAMALNRRSRSLDTAETLEMELSNSHLVQGYLESDELQAQQEDSDEEDEEEEEGEWSRDSPLSLYTEPPGAYDWPAWAPCPLPVGPGPAWISPNQLDRPSSQSPYRQATCCIPPMTMSISLSVPESRAPGESGPQLARPSHLHLPMGPCYNLQPQASQSMRARPRDVLLPVDEPSCSSSSGGFSPSPLPQAKPVGITHGIPQLPRVRPEHPQPQPTHYGPSSLDLSKERAEQGASLATSYSSTAMNGNLAK

Assays:
[1] = target: T1, FLAG-Amer1 (UniProt Q5JTC6); assay: co-IP; overexpressed tagged proteins in HEK293T; Nonidet P-40 lysis buffer (50 mM Tris pH 7.4, 150 mM NaCl, 1 mM EDTA, 0.5% Nonidet P-40), 4 °C, anti-tag antibody and protein G-Sepharose overnight, six washes; Western blot; in Fig. 7A, B with PI4KIIα siRNA or overexpressed PI4KIIα or PIP5KIβ
T1 sequence: B1 chain

[2] = target: endogenous β-arrestin2 (NB4 cells) (human (endogenous in NB4)) (UniProt P32121); assay: co-IP; endogenous proteins of NB4 cells (cytoplasmic fraction in Fig. 6C; cells with Wnt3a or control CM for 2 h); precipitation with anti-β-arrestin antibodies A1CT and A2CT, protein G-Sepharose, 4 °C; Western blot

| Molecule | binding [1] | binding [2] |
| --- | --- | --- |
| HA-β-arrestin2 (from UniProt P32121 1-409) | binds |  |
| B1 |  | binds |
